Results: PMC12884770
These are yes or no findings as the source states them, for the method shown. In cells and extracts the contact can be indirect. Some results given as binding are weak or reduced against the parent protein; the word gives no strength. Where a sequence is shown, tags or fusion partners need not be part of it.

Chains of the proteins cited; added tags and fusions are not shown.
UniProt Q96K21: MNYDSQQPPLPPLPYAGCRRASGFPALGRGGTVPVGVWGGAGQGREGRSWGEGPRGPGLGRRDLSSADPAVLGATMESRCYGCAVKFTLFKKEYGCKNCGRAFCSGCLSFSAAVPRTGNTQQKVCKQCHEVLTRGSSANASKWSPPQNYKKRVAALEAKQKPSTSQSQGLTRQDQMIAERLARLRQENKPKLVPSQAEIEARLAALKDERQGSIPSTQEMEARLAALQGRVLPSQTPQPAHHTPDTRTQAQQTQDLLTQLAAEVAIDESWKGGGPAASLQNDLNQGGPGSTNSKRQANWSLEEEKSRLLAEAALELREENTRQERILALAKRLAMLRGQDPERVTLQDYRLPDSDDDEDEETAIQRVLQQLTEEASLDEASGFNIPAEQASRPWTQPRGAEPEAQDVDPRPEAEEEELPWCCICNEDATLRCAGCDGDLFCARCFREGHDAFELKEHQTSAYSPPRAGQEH

How the values were obtained:
[1] = biological target: T1, HA-tagged VPS4A (human) (UniProt Q9UN37); experiment: co-IP; HEK293T co-transfected for 24 h with FLAG-tagged ZFYVE19 or its variants and HA-tagged partner; cells sonicated in 1× DPBS; lysate on EZview Red Anti-HA Affinity Gel overnight at 4 °C; five washes with 1× TBS; blots with anti-HA and anti-FLAG
T1 sequence: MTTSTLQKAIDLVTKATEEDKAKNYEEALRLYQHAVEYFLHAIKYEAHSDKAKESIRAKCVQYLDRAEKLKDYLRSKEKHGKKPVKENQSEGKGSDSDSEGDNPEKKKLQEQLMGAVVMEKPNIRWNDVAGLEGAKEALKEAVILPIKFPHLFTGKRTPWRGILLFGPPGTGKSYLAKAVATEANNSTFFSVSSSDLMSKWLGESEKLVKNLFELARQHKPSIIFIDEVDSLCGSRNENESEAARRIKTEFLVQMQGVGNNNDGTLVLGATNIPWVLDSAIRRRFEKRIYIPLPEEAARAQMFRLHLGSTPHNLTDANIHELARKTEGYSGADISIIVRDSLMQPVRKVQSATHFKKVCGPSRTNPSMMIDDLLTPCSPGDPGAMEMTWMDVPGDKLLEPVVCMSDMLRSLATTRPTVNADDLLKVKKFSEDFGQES

[2] = biological target: T2, HA-tagged VPS4B (human) (UniProt O75351); experiment: as above
T2 sequence: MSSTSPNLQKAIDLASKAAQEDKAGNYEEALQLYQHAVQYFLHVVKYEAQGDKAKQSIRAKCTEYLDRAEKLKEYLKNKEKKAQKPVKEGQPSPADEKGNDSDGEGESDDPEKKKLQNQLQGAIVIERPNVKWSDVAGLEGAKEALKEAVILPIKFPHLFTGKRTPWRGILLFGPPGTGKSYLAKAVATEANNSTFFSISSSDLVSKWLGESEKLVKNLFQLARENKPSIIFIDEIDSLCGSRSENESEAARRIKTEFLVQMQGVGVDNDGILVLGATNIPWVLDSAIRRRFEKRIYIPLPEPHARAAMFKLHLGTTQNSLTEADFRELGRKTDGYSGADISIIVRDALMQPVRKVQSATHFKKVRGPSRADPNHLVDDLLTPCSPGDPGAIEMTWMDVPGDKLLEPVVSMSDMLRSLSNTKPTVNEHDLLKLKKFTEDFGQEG

“FLAG-tagged ZFYVE19 (Zinc Finger FYVE-Type Containing 19) (from UniProt Q96K21 1-471)” was tested, and the binding [1] was “binds” and the binding [2] was “binds”.
